Source: the supplement of paper PMC11006884
This is a selection; strong and weak results do not stand in their true shares.

Sequences of proteins named here, by UniProt entry; tags and fusion partners are left off. A change or cut given only in a name is not applied to a line headed by its entry.
UniProt P18085: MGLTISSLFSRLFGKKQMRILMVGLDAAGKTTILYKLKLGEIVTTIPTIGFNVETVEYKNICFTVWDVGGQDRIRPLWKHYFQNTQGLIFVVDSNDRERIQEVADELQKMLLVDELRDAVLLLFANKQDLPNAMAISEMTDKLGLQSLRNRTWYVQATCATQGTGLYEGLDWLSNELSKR
UniProt P29317, whole entry: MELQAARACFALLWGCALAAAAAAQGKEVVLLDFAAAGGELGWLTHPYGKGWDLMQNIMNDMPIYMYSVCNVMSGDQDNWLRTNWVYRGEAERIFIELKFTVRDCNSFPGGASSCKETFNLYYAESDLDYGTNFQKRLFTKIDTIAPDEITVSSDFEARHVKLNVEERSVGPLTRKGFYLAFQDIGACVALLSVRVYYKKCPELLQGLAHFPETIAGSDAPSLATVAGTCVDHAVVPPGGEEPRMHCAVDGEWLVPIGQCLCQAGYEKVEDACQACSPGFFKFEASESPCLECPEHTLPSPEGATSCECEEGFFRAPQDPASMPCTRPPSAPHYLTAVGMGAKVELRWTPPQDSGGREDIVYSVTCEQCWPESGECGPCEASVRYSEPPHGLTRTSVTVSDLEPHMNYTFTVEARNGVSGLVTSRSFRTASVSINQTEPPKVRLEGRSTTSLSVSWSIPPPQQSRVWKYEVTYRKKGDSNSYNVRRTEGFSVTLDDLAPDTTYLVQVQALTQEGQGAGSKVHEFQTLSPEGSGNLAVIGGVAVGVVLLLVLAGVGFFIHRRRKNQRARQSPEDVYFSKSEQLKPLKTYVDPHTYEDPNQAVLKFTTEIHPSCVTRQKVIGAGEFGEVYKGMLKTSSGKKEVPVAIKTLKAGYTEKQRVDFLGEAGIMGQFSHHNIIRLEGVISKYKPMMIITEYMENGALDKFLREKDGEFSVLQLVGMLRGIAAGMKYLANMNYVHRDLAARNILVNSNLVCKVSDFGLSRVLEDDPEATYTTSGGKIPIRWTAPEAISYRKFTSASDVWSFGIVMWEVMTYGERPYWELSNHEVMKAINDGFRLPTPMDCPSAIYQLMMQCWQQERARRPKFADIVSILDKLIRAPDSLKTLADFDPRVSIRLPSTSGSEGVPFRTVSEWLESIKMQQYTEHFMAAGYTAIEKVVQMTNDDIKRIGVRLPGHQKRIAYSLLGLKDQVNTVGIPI
UniProt P25098: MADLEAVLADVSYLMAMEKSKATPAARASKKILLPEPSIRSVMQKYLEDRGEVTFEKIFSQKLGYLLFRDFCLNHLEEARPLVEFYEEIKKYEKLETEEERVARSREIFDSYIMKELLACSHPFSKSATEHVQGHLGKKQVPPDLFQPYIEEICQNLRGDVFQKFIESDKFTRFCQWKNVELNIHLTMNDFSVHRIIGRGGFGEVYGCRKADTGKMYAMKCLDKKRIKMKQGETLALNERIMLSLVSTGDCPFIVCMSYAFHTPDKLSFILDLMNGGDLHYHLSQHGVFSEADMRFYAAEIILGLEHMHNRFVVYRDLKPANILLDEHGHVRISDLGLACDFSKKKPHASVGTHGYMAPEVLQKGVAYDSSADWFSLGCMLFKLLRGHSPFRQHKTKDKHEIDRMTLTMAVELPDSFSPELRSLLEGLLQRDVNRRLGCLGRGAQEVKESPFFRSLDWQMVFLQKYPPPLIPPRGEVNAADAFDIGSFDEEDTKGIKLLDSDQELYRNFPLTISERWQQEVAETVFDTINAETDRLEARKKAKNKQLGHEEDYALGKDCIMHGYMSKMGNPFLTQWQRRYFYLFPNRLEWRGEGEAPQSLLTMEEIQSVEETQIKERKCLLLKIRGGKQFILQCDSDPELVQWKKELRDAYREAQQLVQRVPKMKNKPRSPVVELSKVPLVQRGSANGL
UniProt P21333, whole entry, looked up: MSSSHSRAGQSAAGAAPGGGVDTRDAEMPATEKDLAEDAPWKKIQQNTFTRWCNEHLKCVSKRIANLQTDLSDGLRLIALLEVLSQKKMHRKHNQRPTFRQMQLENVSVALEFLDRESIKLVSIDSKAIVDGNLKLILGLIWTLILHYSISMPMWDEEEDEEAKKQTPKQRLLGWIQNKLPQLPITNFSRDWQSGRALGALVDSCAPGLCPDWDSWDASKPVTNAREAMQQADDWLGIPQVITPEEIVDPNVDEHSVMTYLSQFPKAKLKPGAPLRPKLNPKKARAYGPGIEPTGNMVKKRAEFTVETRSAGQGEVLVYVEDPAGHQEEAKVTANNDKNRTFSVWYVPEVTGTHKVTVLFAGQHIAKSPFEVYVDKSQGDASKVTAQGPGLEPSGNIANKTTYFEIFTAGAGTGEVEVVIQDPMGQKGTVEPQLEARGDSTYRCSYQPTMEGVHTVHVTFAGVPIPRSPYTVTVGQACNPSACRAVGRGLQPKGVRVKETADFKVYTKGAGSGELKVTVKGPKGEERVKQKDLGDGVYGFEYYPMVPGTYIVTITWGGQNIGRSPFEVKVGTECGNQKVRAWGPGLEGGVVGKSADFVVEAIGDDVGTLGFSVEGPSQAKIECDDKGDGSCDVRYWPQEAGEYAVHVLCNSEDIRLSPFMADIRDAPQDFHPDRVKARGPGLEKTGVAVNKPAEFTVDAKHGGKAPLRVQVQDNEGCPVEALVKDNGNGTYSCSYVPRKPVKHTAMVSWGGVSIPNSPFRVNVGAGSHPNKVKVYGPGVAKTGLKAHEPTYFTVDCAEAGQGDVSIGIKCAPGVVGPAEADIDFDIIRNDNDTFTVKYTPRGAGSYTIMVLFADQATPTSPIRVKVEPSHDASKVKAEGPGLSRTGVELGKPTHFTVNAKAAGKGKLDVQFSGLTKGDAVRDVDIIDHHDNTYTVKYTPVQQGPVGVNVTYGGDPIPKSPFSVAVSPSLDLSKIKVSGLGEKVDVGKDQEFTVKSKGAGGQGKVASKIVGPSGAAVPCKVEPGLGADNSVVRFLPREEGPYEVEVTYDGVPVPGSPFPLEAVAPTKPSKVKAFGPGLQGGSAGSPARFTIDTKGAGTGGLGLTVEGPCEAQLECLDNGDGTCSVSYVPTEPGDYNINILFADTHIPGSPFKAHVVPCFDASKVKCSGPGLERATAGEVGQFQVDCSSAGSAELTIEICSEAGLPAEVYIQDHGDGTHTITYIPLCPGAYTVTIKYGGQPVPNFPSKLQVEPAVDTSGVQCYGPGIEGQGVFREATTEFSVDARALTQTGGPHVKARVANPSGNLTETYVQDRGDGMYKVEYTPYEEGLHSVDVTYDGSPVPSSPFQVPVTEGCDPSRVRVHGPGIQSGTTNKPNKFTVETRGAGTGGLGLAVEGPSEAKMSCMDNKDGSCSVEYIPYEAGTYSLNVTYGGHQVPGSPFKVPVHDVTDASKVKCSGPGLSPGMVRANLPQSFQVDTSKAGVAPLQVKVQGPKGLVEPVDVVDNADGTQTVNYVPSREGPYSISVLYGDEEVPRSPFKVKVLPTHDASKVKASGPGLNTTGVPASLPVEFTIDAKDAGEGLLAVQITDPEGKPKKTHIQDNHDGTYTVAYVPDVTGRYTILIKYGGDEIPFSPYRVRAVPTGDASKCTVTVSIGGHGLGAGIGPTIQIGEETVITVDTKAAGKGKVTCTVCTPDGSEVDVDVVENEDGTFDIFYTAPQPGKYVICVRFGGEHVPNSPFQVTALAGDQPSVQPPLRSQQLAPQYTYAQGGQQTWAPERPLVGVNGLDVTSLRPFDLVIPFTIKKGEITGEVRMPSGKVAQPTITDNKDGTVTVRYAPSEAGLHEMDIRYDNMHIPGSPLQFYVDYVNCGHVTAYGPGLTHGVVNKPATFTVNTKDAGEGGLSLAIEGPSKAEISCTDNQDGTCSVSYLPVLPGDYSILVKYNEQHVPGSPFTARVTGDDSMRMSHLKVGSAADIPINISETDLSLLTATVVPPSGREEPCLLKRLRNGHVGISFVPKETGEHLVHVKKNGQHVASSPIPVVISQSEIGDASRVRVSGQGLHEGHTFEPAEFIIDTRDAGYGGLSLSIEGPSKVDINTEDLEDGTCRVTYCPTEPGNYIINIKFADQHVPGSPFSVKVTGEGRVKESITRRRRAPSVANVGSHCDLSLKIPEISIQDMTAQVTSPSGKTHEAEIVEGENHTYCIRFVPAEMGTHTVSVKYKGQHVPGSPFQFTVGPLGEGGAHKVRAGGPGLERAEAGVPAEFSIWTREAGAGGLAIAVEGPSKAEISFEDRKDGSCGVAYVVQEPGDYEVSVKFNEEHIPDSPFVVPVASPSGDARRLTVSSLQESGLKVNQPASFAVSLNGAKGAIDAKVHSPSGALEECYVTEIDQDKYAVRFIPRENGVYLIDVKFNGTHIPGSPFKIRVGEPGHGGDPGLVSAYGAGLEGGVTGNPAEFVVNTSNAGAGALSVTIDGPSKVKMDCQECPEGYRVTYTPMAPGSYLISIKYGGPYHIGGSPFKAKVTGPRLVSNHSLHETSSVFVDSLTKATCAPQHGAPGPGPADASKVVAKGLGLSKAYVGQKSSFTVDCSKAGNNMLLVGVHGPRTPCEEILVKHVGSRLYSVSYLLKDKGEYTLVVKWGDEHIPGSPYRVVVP
UniProt P23258, whole entry, looked up: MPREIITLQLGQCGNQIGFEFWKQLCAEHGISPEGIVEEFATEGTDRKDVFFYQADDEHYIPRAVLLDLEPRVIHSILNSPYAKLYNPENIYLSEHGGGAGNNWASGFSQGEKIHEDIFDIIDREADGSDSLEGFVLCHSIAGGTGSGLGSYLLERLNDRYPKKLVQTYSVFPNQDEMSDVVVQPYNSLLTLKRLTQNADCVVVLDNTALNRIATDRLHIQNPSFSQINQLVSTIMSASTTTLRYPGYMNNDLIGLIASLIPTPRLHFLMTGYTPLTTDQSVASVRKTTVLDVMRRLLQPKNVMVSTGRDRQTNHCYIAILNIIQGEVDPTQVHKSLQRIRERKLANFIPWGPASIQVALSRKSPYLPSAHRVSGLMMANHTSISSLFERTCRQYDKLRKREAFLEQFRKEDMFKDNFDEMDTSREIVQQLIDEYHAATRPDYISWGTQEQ
UniProt P20810: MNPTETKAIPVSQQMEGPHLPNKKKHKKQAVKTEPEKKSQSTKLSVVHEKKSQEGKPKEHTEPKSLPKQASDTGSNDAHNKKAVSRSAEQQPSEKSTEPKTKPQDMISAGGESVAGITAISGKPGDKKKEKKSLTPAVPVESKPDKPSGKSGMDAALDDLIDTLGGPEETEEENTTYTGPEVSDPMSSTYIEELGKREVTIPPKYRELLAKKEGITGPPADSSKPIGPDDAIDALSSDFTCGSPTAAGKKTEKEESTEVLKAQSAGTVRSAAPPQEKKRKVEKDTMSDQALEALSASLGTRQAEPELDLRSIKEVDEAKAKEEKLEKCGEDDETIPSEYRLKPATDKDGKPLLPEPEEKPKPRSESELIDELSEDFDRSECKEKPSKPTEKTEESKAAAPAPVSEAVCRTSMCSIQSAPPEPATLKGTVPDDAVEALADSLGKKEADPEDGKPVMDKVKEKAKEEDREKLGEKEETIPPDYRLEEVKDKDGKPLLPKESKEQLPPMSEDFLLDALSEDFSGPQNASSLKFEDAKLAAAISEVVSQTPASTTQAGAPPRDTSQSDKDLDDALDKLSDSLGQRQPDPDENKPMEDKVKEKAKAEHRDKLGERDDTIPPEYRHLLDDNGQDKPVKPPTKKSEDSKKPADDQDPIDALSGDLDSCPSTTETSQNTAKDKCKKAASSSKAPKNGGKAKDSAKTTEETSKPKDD
UniProt P27695, whole entry, looked up: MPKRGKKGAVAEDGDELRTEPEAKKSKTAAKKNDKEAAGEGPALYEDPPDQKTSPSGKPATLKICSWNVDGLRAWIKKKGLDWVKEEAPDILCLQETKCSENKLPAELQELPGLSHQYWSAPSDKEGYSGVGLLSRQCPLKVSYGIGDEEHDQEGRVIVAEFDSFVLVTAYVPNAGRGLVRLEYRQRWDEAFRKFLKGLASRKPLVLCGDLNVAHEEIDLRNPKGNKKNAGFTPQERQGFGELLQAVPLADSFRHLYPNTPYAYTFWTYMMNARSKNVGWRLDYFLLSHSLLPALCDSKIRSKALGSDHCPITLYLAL
UniProt P26641, whole entry, looked up: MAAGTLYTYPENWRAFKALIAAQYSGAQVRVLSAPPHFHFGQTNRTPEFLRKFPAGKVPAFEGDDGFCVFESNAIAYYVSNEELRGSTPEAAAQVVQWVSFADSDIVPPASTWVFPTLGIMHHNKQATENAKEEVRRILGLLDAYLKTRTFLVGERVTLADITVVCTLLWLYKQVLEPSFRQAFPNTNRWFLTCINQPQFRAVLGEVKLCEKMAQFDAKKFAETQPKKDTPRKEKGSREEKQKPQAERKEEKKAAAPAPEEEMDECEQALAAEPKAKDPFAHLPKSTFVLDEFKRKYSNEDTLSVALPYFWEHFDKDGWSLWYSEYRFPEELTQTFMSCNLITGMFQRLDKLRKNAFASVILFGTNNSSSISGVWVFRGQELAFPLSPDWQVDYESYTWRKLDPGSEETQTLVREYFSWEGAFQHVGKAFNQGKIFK

compound: COC(=O)C#Cc1ccccc1 [methyl 3-phenylpropiolate]; assay: log2 ratio of iodoacetamide-alkyne labeling of the cysteine site, DMSO over compound (competition); higher = stronger covalent engagement of the cysteine by the compound, active = 1 or more; details: 500 µM; treatment time 1 h; system: HEK293T cell lysate
Outline: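 HEK293T lysate (2 mg/mL) was treated with DMSO or electrophile (500 µM, 1 h, ambient temperature), then iodoacetamide alkyne (1 h), clicked to sCIP-TMT reagents, pooled, trypsin-digested overnight at 37 °C, streptavidin-enriched and acid-eluted. Peptides were run on Orbitrap Eclipse LC-MS/MS with FAIMS and quantified in FragPipe. The log2 competition ratio per cysteine is mean control-channel over mean compound-channel reporter intensity. Duplicate channels and three replicates were used, and cysteines quantified in only one replicate were excluded.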

log2 ratio of iodoacetamide-alkyne labeling, inactive:
ARF4 C62 (UniProt P18085) -0.015
PML C227 (UniProt P29590) 0.361
SCP2 C495 (UniProt P22307) 0.137
RPS3 C119 (UniProt P23396) -0.136
UniProt P25398_C69 -0.126
DNMT1 C62 (UniProt P26358) 0.213
RCC1 C93 (UniProt P18754) 0.14
SON C1551 (UniProt P18583) 0.355
EPHA2 C612 (UniProt P29317) 0.0671
UniProt P25098_C340 0.034
FLNA C1997 (UniProt P21333) 0.0962
RRM1 C790 (UniProt P23921) 0.627
GART C41 (UniProt P22102) 0.0457
FLNA C2199 (UniProt P21333) 0.0103
PSMA1 C182 (UniProt P25786) 0.0412
TUBG1 C201 (UniProt P23258) 0.173
FLNA C574 (UniProt P21333) -0.0328
PRDX5 C204 (UniProt P30044) 0.322
CAST C381 (UniProt P20810) 0.418
RPL12 C141 (UniProt P30050) 0.1
FLNA C2479 (UniProt P21333) 0.205
MCM3 C119 (UniProt P25205) 0.38
FLNA C1165 (UniProt P21333) 0.598
NFKB1 C61 (UniProt P19838) 0.822
XRCC1 C362 (UniProt P18887) 0.725
FLNA C2543 (UniProt P21333) 0.267
POLD1 C1061 (UniProt P28340) 0.113
APC C2664 (UniProt P25054) 0.154
IMPA1 C24 (UniProt P29218) 0.368
RASA1 C1002 (UniProt P20936) 0.0468
EIF2S2 C226 (UniProt P20042) 0.0653
CALR C163 (UniProt P27797) -0.164
BCKDHB C177 (UniProt P21953) 0.0777
FLNA C1912 (UniProt P21333) 0.254
COMT C223 (UniProt P21964) 0.307
APEX1 C65 (UniProt P27695) 0.045
TUBG1 C316 (UniProt P23258) 0.154
EEF1G C194 (UniProt P26641) 0.0462

Two consecutive records already listed, for reference:
log2 ratio of iodoacetamide-alkyne labeling, inactive:
FLNA C2543 (UniProt P21333) 0.267
POLD1 C1061 (UniProt P28340) 0.113
